Here are results for one substance from publication PMC9949381.

By UniProt entry, the sequences of proteins in these tests, tags left out.
UniProt O15379: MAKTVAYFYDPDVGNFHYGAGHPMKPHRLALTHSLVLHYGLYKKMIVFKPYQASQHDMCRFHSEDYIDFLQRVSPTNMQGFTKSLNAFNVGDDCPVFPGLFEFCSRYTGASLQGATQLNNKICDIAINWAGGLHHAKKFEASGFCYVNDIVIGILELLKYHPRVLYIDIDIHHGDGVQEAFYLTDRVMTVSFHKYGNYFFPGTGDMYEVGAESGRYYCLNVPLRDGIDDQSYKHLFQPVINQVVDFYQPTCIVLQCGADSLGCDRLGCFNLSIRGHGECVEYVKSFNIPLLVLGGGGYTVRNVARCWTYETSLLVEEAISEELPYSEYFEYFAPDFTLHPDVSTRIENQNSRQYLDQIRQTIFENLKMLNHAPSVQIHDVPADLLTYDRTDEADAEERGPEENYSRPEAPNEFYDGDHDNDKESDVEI

Results are given in words; binding and its absence hold for the method and conditions named. Binding seen in cells or lysates may run through a third protein. Some binding calls cover weakened binding; strength is not graded here. Where a sequence is shown, tags or fusion partners need not be part of it.

Test [1] has as its target T1, 3X-Flagged Seven in Absentia Homolog 2 (SIAH2) protein (human) (UniProt O43255).
T1 sequence: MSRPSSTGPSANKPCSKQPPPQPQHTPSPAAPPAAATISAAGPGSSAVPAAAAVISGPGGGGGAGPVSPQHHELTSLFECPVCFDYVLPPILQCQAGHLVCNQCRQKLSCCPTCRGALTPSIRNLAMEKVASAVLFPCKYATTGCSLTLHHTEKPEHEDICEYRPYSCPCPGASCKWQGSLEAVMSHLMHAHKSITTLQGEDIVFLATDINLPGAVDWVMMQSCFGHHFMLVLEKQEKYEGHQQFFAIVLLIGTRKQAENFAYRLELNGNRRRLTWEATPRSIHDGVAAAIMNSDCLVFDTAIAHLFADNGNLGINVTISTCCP
Nature of the test: co-IP; SIAH2 pull-down; HDAC3 detected in the immunoprecipitated fraction (Supplementary Fig. S7D); method not described in the text shown.

Test [2] addresses T1, 3X-Flagged Seven in Absentia Homolog 2 (SIAH2) protein (human). Description: proximity ligation; Duolink in situ PLA on fixed, permeabilised MM.1S-3xFlag-tagged SIAH2 cells after 24 h with 0.5 umol/L lactacystin; anti-FLAG and anti-HDAC3 primary antibodies.

In the case of “histone deacetylase 3 (HDAC3) (from UniProt O15379 1-428) (enzyme)”, the binding entry in test [1] and in test [2] was “binds” in each case.
